Measured values published in PMC11022886.
No constants are given. Whether binding was seen depends on the method and setting. In cells and extracts the contact can be indirect. A result given as binding can be weak or reduced; the word gives no strength.

The chains behind the UniProt entries cited, without tags or fusion partners.
UniProt Q8BG32: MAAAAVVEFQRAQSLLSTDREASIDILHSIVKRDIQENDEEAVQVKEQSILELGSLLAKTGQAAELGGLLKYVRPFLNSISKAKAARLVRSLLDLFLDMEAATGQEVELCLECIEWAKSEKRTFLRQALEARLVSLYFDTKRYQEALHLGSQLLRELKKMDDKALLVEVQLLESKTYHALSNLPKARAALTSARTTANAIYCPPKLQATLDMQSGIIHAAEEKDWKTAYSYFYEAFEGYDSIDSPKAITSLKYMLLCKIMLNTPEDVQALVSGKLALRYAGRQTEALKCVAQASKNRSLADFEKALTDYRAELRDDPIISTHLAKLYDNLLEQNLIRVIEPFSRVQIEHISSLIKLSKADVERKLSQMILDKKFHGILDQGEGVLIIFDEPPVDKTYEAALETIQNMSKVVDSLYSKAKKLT

Target: Full-length mouse PSMD11 with FLAG epitope (mouse) (UniProt Q8BG32)
Assay: co-IP; HEK293T cells expressing each protein in separate cultures, NP-40 lysates mixed, anti-Flag M2 affinity gel, eluted with 3xFlag peptides, immunoblot with anti-HA or anti-FLAG

binding: binds
Substance: Mouse Midn (NM_021565.2) tagged N-terminally with an HA epitope (from UniProt Q3TPJ7-1)
